Data published in patent US20150166666A1.
Results are given in words; binding and its absence hold for the method and conditions named. A result given as binding can be weak or reduced; the word gives no strength.

Protein sequences, listed by entry. Tags and fused reporters are not part of them. Lines headed by an entry give the natural chain unless they say otherwise; changes in a name come on top.
UniProt P08887: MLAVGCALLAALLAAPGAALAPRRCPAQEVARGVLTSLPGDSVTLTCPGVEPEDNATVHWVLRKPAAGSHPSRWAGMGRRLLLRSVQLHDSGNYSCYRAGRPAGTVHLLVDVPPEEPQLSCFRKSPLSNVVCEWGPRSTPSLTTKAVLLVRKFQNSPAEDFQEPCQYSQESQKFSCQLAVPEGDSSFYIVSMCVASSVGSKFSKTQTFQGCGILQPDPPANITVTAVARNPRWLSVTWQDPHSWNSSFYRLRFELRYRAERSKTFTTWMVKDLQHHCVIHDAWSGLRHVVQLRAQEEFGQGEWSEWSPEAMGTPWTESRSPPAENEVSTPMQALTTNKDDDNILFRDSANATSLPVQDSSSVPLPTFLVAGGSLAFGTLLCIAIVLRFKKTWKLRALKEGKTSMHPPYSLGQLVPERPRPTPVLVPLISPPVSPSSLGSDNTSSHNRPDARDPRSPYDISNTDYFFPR

Assays:
[1] = target: Soluble cynomolgus monkey IL-6 receptor (in the plasma of cynomolgus monkeys) (cynomolgus monkey); experiment: percentage of free soluble cynomolgus IL-6 receptor in plasma after removal of IgG-bound receptor on Protein A; time course after a single 1 mg/kg i.v. dose in cynomolgus monkeys
[2] = target: Soluble recombinant human IL-6 receptor (SR344) (human) (UniProt P08887); experiment: statement in the discussion of the monkey study; no affinity of the control is printed

| binding [1] | binding [2] | Binder |
| --- | --- | --- |
| binds |  | Fv3-M73 (H chain VH4-M73; L chain VL1-kappa) (antibody, V domains shown) VH: QVQLQESGPGLVKPSETLSLTCAVSGHSISHDHAWSWVRQPPGEGLEWIGFISYSGITNYNPTLQGRVTISRDNSKNTLYLQMNSLRAEDTAVYYCARSLARTTAMDYWGEGTLVTVSS VL: DIQMTQSPSSLSASVGDSVTITCQASRDISSHLNWYQQKPGKAPELLIYYGSHLLSGVPSRFSGSGSGTDFTFTISSLEAEDAATYYCGQGNRLPYTFGQGTKVEIER |
| binds |  | Fv4-M73 (H chain VH3-M73; L chain VL3-kappa) (antibody, V domains shown) VH: QVQLQESGPGLVKPSETLSLTCAVSGHSISHDHAWSWVRQPPGEGLEWIGFISYSGITNYNPSLQGRVTISRDNSKNTLYLQMNSLRAEDTAVYYCARSLARTTAMDYWGEGTLVTVSS VL: DIQMTQSPSSLSASVGDSVTITCQASTDISSHLNWYQQKPGKAPELLIYYGSHLLSGVPSRFSGSGSGTDFTFTISSLEAEDAATYYCGQGNRLPYTFGQGTKVEIER |
| binds | binds | Fv5-M83 (H chain VH5-M83; L chain VL5-kappa) (antibody, human IgG1, kappa, V domains shown) VH: QVQLQESGPGLVKPSETLSLTCAVSGYSISDDHAVSWVRQPPGEGLEWIGFISYSGITNYNPTLQDRVTISRDNSKNTLYLQMNSLRAEDTAVYYCARLLARATAMDVWGEGTLVTVSS VL: DIQMTQSPSSLSASVGDSVTITCQASQDISSYLNWYQQKPGKAPELLIYYGSELESGVPSRFSGSGSGTDFTFTISSLEAEDAATYYCGQGNRLPYTFGQGTKVEIER |
